Assay results as given in PMC4557955.

Each sequence was assayed on BPs gp33103 repressor (short, prophage-encoded form) (Mycobacteriophage BPs) (assay: EMSA). Settings: EMSA: 20 mM Tris pH 7.5, 10 mM EDTA, 25 mM NaCl, 10 mM spermidine, 1 mM DTT, 1 ug calf thymus DNA in 10 ul, room temperature 30 min, 5% native gel; recombinant protein; label: 5' 32P.

Question: Does “ACCGACGCGACATATGTCGACGCTTGACGACATATGTCGCAGCCT (double strand) [2 half sites 8 bp apart]” bind?
Answer: Result: binds

Question: Does “CACCGACGAAGTGCCACGATACTGACGACATATGTCGCAGCCTGG (double strand) [left half site ablated (5 bp apart)]” bind?
Answer: Result: binds

Question: Does “CACCGACGCGACATATGTCGACTGAAAGTGCCACGATCAGCCTGG (double strand) [right half site ablated (5 bp apart)]” bind?
Answer: Result: binds

Question: Does “CACCGACGCGACATATGTCGACTGACGACATATGTCGCAGCCTGG (double strand) [2 half sites 5 bp apart]” bind?
Answer: Result: binds

Question: Does “GCATTTTCCAATAGACGACATTCGCGCCTATGTTGGTGCACA (double strand) [O61-L]” bind?
Answer: Result: binds more weakly

Question: Does “GCATTTTCCAATAGAGGACATATGCGGCTATGTTGGTGCACA (double strand) [O6-R]” bind?
Answer: Result: binds more weakly

Question: Does “GCATTTTCCAATAGATGACACTTGTCGCTATGTTGGTGCACA (double strand) [O55-R]” bind?
Answer: Result: binds more weakly

The exact form of at least one protein or probe is not confirmed. The comparison behind a weaker result is the experiment's own reference, which may not be listed here.
